# Some of the results follow.
# Tests used:
# Test in all cases: glycan array binding signal (z-score within array); higher = stronger binding
# Conditions in all cases: glycan notation: IUPAC condensed, linker removed
# [1] = molecular target: GlcNAc(a1-6)Gal(b1-4)GlcNAc
# In short: (§1)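 From the Consortium for Functional Glycomics database, 3228 arrays were curated, keeping only those whose protein sequence was available. Binding is given as a within-array Z-score averaged across arrays sharing a protein sequence and across linkers. Negative Z-scores can be read as non-binding.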
# [2] = molecular target: GlcNAc(b1-2)Gal(b1-3)GalNAc
# In short: as §1
# [3] = molecular target: GlcNAc(b1-2)Man(a1-3)[GlcNAc(b1-2)Man(a1-6)]Man(b1-4)GlcNAc(b1-4)GlcNAc
# In short: as §1
# [4] = molecular target: GlcNAc(b1-2)Man(a1-3)[GlcNAc(b1-2)Man(a1-6)]Man(b1-4)GlcNAc(b1-4)[Fuc(a1-6)]GlcNAc
# In short: as §1
# [5] = molecular target: GlcNAc(b1-2)Man(a1-3)[GlcNAc(b1-4)][GlcNAc(b1-2)Man(a1-6)]Man(b1-4)GlcNAc(b1-4)GlcNAc
# In short: as §1
# [6] = molecular target: GlcNAc(b1-2)Man(a1-3)[GlcNAc(b1-4)][GlcNAc(b1-2)Man(a1-6)]Man(b1-4)GlcNAc(b1-4)[Fuc(a1-6)]GlcNAc
# In short: as §1
# [7] = molecular target: GlcNAc(b1-2)[GlcNAc(b1-4)]Man(a1-3)[GlcNAc(b1-2)Man(a1-6)]Man(b1-4)GlcNAc(b1-4)GlcNAc
# In short: as §1
# [8] = molecular target: GlcNAc(b1-2)[GlcNAc(b1-4)]Man(a1-3)[GlcNAc(b1-4)][GlcNAc(b1-2)Man(a1-6)]Man(b1-4)GlcNAc(b1-4)GlcNAc
# In short: as §1
# [9] = molecular target: GlcNAc(b1-2)[GlcNAc(b1-4)]Man(a1-3)[GlcNAc(b1-4)][GlcNAc(b1-2)[GlcNAc(b1-6)]Man(a1-6)]Man(b1-4)GlcNAc(b1-4)GlcNAc
# In short: as §1
# [10] = molecular target: GlcNAc(b1-2)[GlcNAc(b1-4)]Man(a1-3)[GlcNAc(b1-4)][GlcNAc(b1-2)[GlcNAc(b1-6)]Man(a1-6)]Man(b1-4)GlcNAc(b1-4)[Fuc(a1-6)]GlcNAc
# In short: as §1
# [11] = molecular target: GlcNAc(b1-2)[GlcNAc(b1-6)]Man(a1-6)[GlcNAc(b1-2)Man(a1-3)]Man(b1-4)GlcNAc(b1-4)GlcNAc
# In short: as §1
# [12] = molecular target: GlcNAc(b1-2)[GlcNAc(b1-6)]Man(a1-6)[GlcNAc(b1-2)Man(a1-3)]Man(b1-4)GlcNAc(b1-4)[Fuc(a1-6)]GlcNAc
# In short: as §1
# [13] = molecular target: GlcNAc(b1-2)[GlcNAc(b1-6)]Man(a1-6)[GlcNAc(b1-4)][GlcNAc(b1-2)Man(a1-3)]Man(b1-4)GlcNAc(b1-4)GlcNAc
# In short: as §1
# GlcNAc(b1-3)Fuc = molecular target: GlcNAc(b1-3)Fuc
# In short: as §1
# GlcNAc(b1-3)Gal = molecular target: GlcNAc(b1-3)Gal
# In short: as §1
# [14] = molecular target: GlcNAc(b1-3)Gal(b1-3)GalNAc
# In short: as §1
# GlcNAc(b1-3)Gal(b1-4)Glc = molecular target: GlcNAc(b1-3)Gal(b1-4)Glc
# In short: as §1
# [15] = molecular target: GlcNAc(b1-3)Gal(b1-4)GlcNAc
# In short: as §1
# [16] = molecular target: GlcNAc(b1-3)Gal(b1-4)GlcNAc(b1-2)Man(a1-3)[GlcNAc(b1-3)Gal(b1-4)GlcNAc(b1-2)Man(a1-6)]Man(b1-4)GlcNAc(b1-4)GlcNAc
# In short: as §1
# [17] = molecular target: GlcNAc(b1-3)Gal(b1-4)GlcNAc(b1-2)Man(a1-3)[GlcNAc(b1-3)Gal(b1-4)GlcNAc(b1-2)Man(a1-6)]Man(b1-4)GlcNAc(b1-4)[Fuc(a1-6)]GlcNAc
# In short: as §1
# [18] = molecular target: GlcNAc(b1-3)Gal(b1-4)GlcNAc(b1-2)[GlcNAc(b1-3)Gal(b1-4)GlcNAc(b1-6)]Man(a1-6)[GlcNAc(b1-3)Gal(b1-4)GlcNAc(b1-2)Man(a1-3)]Man(b1-4)GlcNAc(b1-4)GlcNAc
# In short: as §1
# [19] = molecular target: GlcNAc(b1-3)Gal(b1-4)GlcNAc(b1-3)Gal(b1-4)GlcNAc
# In short: as §1
# [20] = molecular target: GlcNAc(b1-3)Gal(b1-4)GlcNAc(b1-3)Gal(b1-4)GlcNAc(b1-2)Man(a1-3)[GlcNAc(b1-3)Gal(b1-4)GlcNAc(b1-3)Gal(b1-4)GlcNAc(b1-2)Man(a1-6)]Man(b1-4)GlcNAc(b1-4)GlcNAc
# In short: as §1
# [21] = molecular target: GlcNAc(b1-3)Gal(b1-4)GlcNAc(b1-3)Gal(b1-4)GlcNAc(b1-2)Man(a1-3)[GlcNAc(b1-3)Gal(b1-4)GlcNAc(b1-3)Gal(b1-4)GlcNAc(b1-2)Man(a1-6)]Man(b1-4)GlcNAc(b1-4)[Fuc(a1-6)]GlcNAc
# In short: as §1
# [22] = molecular target: GlcNAc(b1-3)Gal(b1-4)GlcNAc(b1-3)Gal(b1-4)GlcNAc(b1-2)[GlcNAc(b1-3)Gal(b1-4)GlcNAc(b1-3)Gal(b1-4)GlcNAc(b1-6)]Man(a1-6)[GlcNAc(b1-3)Gal(b1-4)GlcNAc(b1-3)Gal(b1-4)GlcNAc(b1-2)Man(a1-3)]Man(b1-4)GlcNAc(b1-4)[Fuc(a1-6)]GlcNAc
# In short: as §1
# [23] = molecular target: GlcNAc(b1-3)Gal(b1-4)GlcNAc(b1-3)Gal(b1-4)GlcNAc(b1-3)Gal(b1-4)GlcNAc(b1-2)Man(a1-3)[GlcNAc(b1-3)Gal(b1-4)GlcNAc(b1-3)Gal(b1-4)GlcNAc(b1-3)Gal(b1-4)GlcNAc(b1-2)Man(a1-6)]Man(b1-4)GlcNAc(b1-4)GlcNAc
# In short: as §1
# [24] = molecular target: GlcNAc(b1-3)Gal(b1-4)GlcNAc(b1-3)Gal(b1-4)GlcNAc(b1-3)Gal(b1-4)GlcNAc(b1-2)Man(a1-3)[GlcNAc(b1-3)Gal(b1-4)GlcNAc(b1-3)Gal(b1-4)GlcNAc(b1-3)Gal(b1-4)GlcNAc(b1-2)Man(a1-6)]Man(b1-4)GlcNAc(b1-4)[Fuc(a1-6)]GlcNAc
# In short: as §1
# [25] = molecular target: GlcNAc(b1-3)Gal(b1-4)GlcNAc(b1-3)Gal(b1-4)GlcNAc(b1-3)Gal(b1-4)GlcNAc(b1-2)[GlcNAc(b1-3)Gal(b1-4)GlcNAc(b1-3)Gal(b1-4)GlcNAc(b1-3)Gal(b1-4)GlcNAc(b1-6)]Man(a1-6)[GlcNAc(b1-3)Gal(b1-4)GlcNAc(b1-3)Gal(b1-4)GlcNAc(b1-3)Gal(b1-4)GlcNAc(b1-2)Man(a1-3)]Man(b1-4)GlcNAc(b1-4)[Fuc(a1-6)]GlcNAc
# In short: as §1
# [26] = molecular target: GlcNAc(b1-3)Gal(b1-4)GlcNAc(b1-3)Gal(b1-4)GlcNAc(b1-3)Gal(b1-4)GlcNAc(b1-3)Gal(b1-4)GlcNAc(b1-2)Man(a1-3)[GlcNAc(b1-3)Gal(b1-4)GlcNAc(b1-3)Gal(b1-4)GlcNAc(b1-3)Gal(b1-4)GlcNAc(b1-3)Gal(b1-4)GlcNAc(b1-2)Man(a1-6)]Man(b1-4)GlcNAc(b1-4)GlcNAc
# In short: as §1
# [27] = molecular target: GlcNAc(b1-3)Gal(b1-4)GlcNAc(b1-3)Gal(b1-4)GlcNAc(b1-3)Gal(b1-4)GlcNAc(b1-3)Gal(b1-4)GlcNAc(b1-2)Man(a1-3)[GlcNAc(b1-3)Gal(b1-4)GlcNAc(b1-3)Gal(b1-4)GlcNAc(b1-3)Gal(b1-4)GlcNAc(b1-3)Gal(b1-4)GlcNAc(b1-2)Man(a1-6)]Man(b1-4)GlcNAc(b1-4)[Fuc(a1-6)]GlcNAc
# In short: as §1
binder,measurement,setting,value
"SHCBP1-GST (Homo sapiens), Q8NEM2 (protein) MADGSLTGGGLEAAAMAPERMGWAVEQELASLEKGLFQDEDSCSDCSYRDKPGSSLQSFMPEGKTFFPEIFQTNQLLFYERFRAYQDYILADCKASEVQEFTAEFLEKVLEPSGWRAVWHTNVFKVLVEITDVDFAALKAVVRLAEPYLCDSQVSTFTMECMKELLDLKEHRLPLQELWVVFDDSGVFDQTALAIEHVRFFYQNIWRSWDEEEEDEYDYFVRCVEPRLRLHYDILEDRVPSGLIVDYHNLLSQCEESYRKFLNLRSSLSNCNSDSEQENISMVEGLKLYSEMEQLKQKLKLIENPLLRYVFGYQKNSNIQAKGVRSSGQKITHVVSSTMMAGLLRSLLTDRLCQEPGEEEREIQFHSDPLSAINACFEGDTVIVCPGHYVVHGTFSIADSIELEGYGLPDDIVIEKRGKGDTFVDCTGADIKISGIKFVQHDAVEGILIVHRGKTTLENCVLQCETTGVTVRTSAEFLMKNSDLYGAKGAGIEIYPGSQCTLSDNGIHHCKEGILIKDFLDEHYDIPKISMVNNIIHNNEGYGVVLVKPTIFSDLQENAEDGTEENKALKIQTSGEPDVAERVDLEELIECATGKMELCARTDPSEQVEGNCEIVNELIAASTQKGQIKKKRLSELGITQADDNLMSQEMFVGIVGNQFKWNGKGSFGTFLF",glycan array binding signal (z-score),[1],0.415
same,glycan array binding signal (z-score),[2],-0.154
same,glycan array binding signal (z-score),[3],-0.282
same,glycan array binding signal (z-score),[4],-0.291
same,glycan array binding signal (z-score),[5],-0.539
same,glycan array binding signal (z-score),[6],-0.097
same,glycan array binding signal (z-score),[7],-0.619
same,glycan array binding signal (z-score),[8],-0.752
same,glycan array binding signal (z-score),[9],-0.916
same,glycan array binding signal (z-score),[10],-0.396
same,glycan array binding signal (z-score),[11],-0.103
same,glycan array binding signal (z-score),[12],0.46
same,glycan array binding signal (z-score),[13],-0.311
same,glycan array binding signal (z-score),GlcNAc(b1-3)Fuc,-0.604
same,glycan array binding signal (z-score),GlcNAc(b1-3)Gal,-0.754
same,glycan array binding signal (z-score),[14],0.01
same,glycan array binding signal (z-score),GlcNAc(b1-3)Gal(b1-4)Glc,-0.064
same,glycan array binding signal (z-score),[15],-0.099
same,glycan array binding signal (z-score),[16],0.201
same,glycan array binding signal (z-score),[17],0.952
same,glycan array binding signal (z-score),[18],1.45
same,glycan array binding signal (z-score),[19],0.222
same,glycan array binding signal (z-score),[20],1.4
same,glycan array binding signal (z-score),[21],1.04
same,glycan array binding signal (z-score),[22],0.736
same,glycan array binding signal (z-score),[23],-0.078
same,glycan array binding signal (z-score),[24],0.644
same,glycan array binding signal (z-score),[25],0.754
same,glycan array binding signal (z-score),[26],0.73
same,glycan array binding signal (z-score),[27],0.436

# Random excerpt: 2 records from the list, in no set order.
binder,measurement,setting,value
"SHCBP1-GST (Homo sapiens), Q8NEM2 (protein) MADGSLTGGGLEAAAMAPERMGWAVEQELASLEKGLFQDEDSCSDCSYRDKPGSSLQSFMPEGKTFFPEIFQTNQLLFYERFRAYQDYILADCKASEVQEFTAEFLEKVLEPSGWRAVWHTNVFKVLVEITDVDFAALKAVVRLAEPYLCDSQVSTFTMECMKELLDLKEHRLPLQELWVVFDDSGVFDQTALAIEHVRFFYQNIWRSWDEEEEDEYDYFVRCVEPRLRLHYDILEDRVPSGLIVDYHNLLSQCEESYRKFLNLRSSLSNCNSDSEQENISMVEGLKLYSEMEQLKQKLKLIENPLLRYVFGYQKNSNIQAKGVRSSGQKITHVVSSTMMAGLLRSLLTDRLCQEPGEEEREIQFHSDPLSAINACFEGDTVIVCPGHYVVHGTFSIADSIELEGYGLPDDIVIEKRGKGDTFVDCTGADIKISGIKFVQHDAVEGILIVHRGKTTLENCVLQCETTGVTVRTSAEFLMKNSDLYGAKGAGIEIYPGSQCTLSDNGIHHCKEGILIKDFLDEHYDIPKISMVNNIIHNNEGYGVVLVKPTIFSDLQENAEDGTEENKALKIQTSGEPDVAERVDLEELIECATGKMELCARTDPSEQVEGNCEIVNELIAASTQKGQIKKKRLSELGITQADDNLMSQEMFVGIVGNQFKWNGKGSFGTFLF",glycan array binding signal (z-score),[14],0.01
same,glycan array binding signal (z-score),[21],1.04

# From the supplement of paper PMC8728848
